This note sets out measurements from PubChem BioAssay AID901 (National Center for Advancing Translational Sciences (NCATS), 2007).

This is one part of the list. The main result of the screen is listed elsewhere. These columns were measured beside it and carry no call. Compounds called inactive in the main read-out are mostly missing here. Words in brackets tell the shape of the fitted curve; partial curves, single points and poor fits give uncertain potencies.

One may read the AC50 as the midpoint of the concentration-response curve, whichever way the signal moves.

This test is described as follows: qHTS Assay for Identifying the Cell-Membrane Permeable IMPase Inhibitors. Particulars: CHO-M1 cells, IP1 accumulation, HTRF TR-FRET ratio; measured here: donor channel 620 nm AC50.
For `O=C(NCCN1CCCCC1)c1ccco1`, the AC50 is 251 nM [falling, full curve].

In the case of `COc1ccccc1-c1n[nH]c(=S)o1`, the AC50 was 12600 nM [rising, partial curve].

With `O=C(c1ccc(C#CC2(O)CCCCC2)cc1)N1CCOCC1`, the AC50 was 12600 nM [falling, single point].

Regarding `O=C(CSc1nnc(-c2cccs2)o1)NCC1CN(Cc2ccccc2)CCO1` (stereo unspecified), the AC50 is 355 nM [falling, full curve, poor fit].

Regarding `Cc1ccc(C)c(N2CCN(c3nc4ccc(C(=O)c5ccccc5)cc4n4cnnc34)CC2)c1`, the AC50 is 17800 nM [rising, partial curve, poor fit].

With `O=C(Nc1c2c(nc3ccccc13)CCCC2)c1ccccc1Br`, the concentration at half-maximal activity (AC50) is 35500 nM [rising, single point].

Turning to `CS(=O)(=O)N(Cc1ccccc1)c1ccc(C(=O)Nc2ccc(Cl)cc2)cc1`, the AC50 was 10 nM [falling, full curve].

Take `COc1ccc(NC(=O)CSc2nnc(-c3ccccc3C)n2N)cc1`: the AC50 is 79.4 nM [rising, full curve, poor fit].

Turning to `CC1(C)CC(=O)NC=C(c2ccccc2)C1`, the AC50 is 31600 nM [falling, single point].

Consider `Cc1ccc(S(=O)(=O)c2cc3cc(Br)ccc3oc2=O)cc1`, for which the AC50 was 5620 nM [rising, single point].

Take `C1CCC2(CC1)OCC1(CO2)COC2(CCCCC2)OC1`: the AC50 was 355 nM [falling, partial curve, poor fit].

Consider `COC(=O)CNC(=O)c1c(C)cc(=O)oc1C`, for which the AC50 was 31600 nM [falling, single point].

Take `Cc1ccc(NC(=O)CSC2=C(C#N)C(c3ccc4c(c3)OCO4)C3=C(CCCC3=O)N2)c(C)c1` (stereo unspecified): the concentration at half-maximal activity (AC50) was 3.98 nM [rising, full curve, poor fit].

`O=c1[nH]cnc2c1oc1ccccc12`: the AC50 is 63.1 nM [rising, full curve, poor fit].

Turning to `COCCN(C(=O)COc1ccc(Cl)cc1)c1nnc(-c2cccnc2)s1`, the AC50 was 7080 nM [rising, partial curve].

`O=C1NC(NS(=O)(=O)c2ccccc2)(C(F)(F)F)C(=O)N1Cc1cccnc1` (stereo unspecified): the concentration at half-maximal activity (AC50) is 3980 nM [rising, full curve].

For the molecule `CCOC(=O)c1ccc2c(c1)nc(SC/C(O)=C(\C#N)c1nc3ccccc3[nH]1)n2CC`, the AC50 is 316 nM [falling, full curve].

Take `CCCn1c(CN(Cc2ccccc2)Cc2ccccc2)nc2c1c(=O)n(C)c(=O)n2C`: the half-maximal activity concentration (AC50) was 15800 nM [rising, single point].

Take `CCn1c(SCC(=O)Nc2sc(C)c(C)c2C#N)nnc1C(C)C`: the AC50 is 15.8 nM [falling, full curve, poor fit].

With `CCOc1ccc(S(=O)(=O)N(CC(=O)Nc2ccc(OC)cc2OC)c2ccccc2)cc1`, the AC50 was 35500 nM [falling, single point].

With `O=C(Nc1cccc(Cl)c1)N1CCN(Cc2ccccc2)CC1`, the concentration at half-maximal activity (AC50) is 2510 nM [falling, partial curve, poor fit].

Consider `Cc1cc(OCC(O)CN2CCN(C)CC2)ccc1C(C)C` (stereo unspecified), for which the half-maximal activity concentration (AC50) is 251 nM [falling, full curve, poor fit].

Turning to `CCOC(=O)c1nn(-c2ccccc2F)c(C)c1C(C)=O`, the AC50 is 25100 nM [rising, single point].

With `COc1cnn(-c2ccc(C)cc2)c(=O)c1SCc1ccccc1`, the half-maximal activity concentration (AC50) was 10000 nM [rising, partial curve].

Take `Cc1ccccc1-c1n[nH]c(=S)o1`: the half-maximal activity concentration (AC50) is 12600 nM [rising, partial curve].

On to `CCOC(=O)c1ccc(N2C(=O)C(O)=C(C(C)=O)C2c2ccccc2)cc1` (stereo unspecified), for which the AC50 is 2000 nM [rising, partial curve].

Regarding `CCN(CC)S(=O)(=O)c1cccc(-c2nnc(SCCCC(=O)c3ccccc3)o2)c1`, the AC50 is 794 nM [rising, full curve, poor fit].

For the molecule `Cc1ccc(N=c2oc3cc(O)ccc3cc2C(N)=O)cc1`, the AC50 is 158 nM [falling, full curve, poor fit].

Take `Clc1ccc(C2=Nn3c(nnc3-c3n[nH]c4c3CCC4)SC2)cc1Cl`: the AC50 is 794 nM [falling, full curve].

`COc1ccc(-c2cc(C(F)F)n3ncc(C(=O)NCC4CCCO4)c3n2)cc1` (stereo unspecified): the AC50 is 31600 nM [rising, single point].

Turning to `COc1ccc(Nc2nc3ccccc3n3cnnc23)cc1`, the concentration at half-maximal activity (AC50) is 20000 nM [falling, partial curve].

As to `CCc1cc2c(SCC(=O)C(C#N)=C3N(C)c4ccccc4N3C)ncnc2s1`, the AC50 was 15800 nM [rising, single point].

For `COc1ccccc1N1CCN(C(=O)Oc2ccccc2)CC1`, the AC50 is 12600 nM [falling, partial curve, poor fit].

For `CCc1ccc(-c2nc(NC(=O)c3ccc(OCC(=O)Nc4ccc(F)cc4)c(OC)c3)sc2C)cc1`, the half-maximal activity concentration (AC50) is 28200 nM [rising, single point].

As for `CSc1ccc(S(=O)(=O)N2CCCC2)cc1`, the AC50 is 200 nM [falling, partial curve, poor fit].

Take `Cc1nnc(C)n1/N=C/c1ccccn1`: the AC50 was 20000 nM [rising, single point].

Regarding `CC(C)CCOC(=O)C1[C@H]2C(=O)N(Cc3cccs3)C[C@]23C=C[C@H]1O3` (stereo partly specified), the concentration at half-maximal activity (AC50) was 398 nM [rising, full curve, poor fit].

Regarding `O=C(CC1c2ccccc2Oc2ccccc21)NCc1ccco1`, the AC50 was 794 nM [rising, full curve].

As to `Cc1cccc2nc(CSCc3ccco3)cn12`, the half-maximal activity concentration (AC50) is 3980 nM [falling, single point].

`CCN1CCN(c2nc(-c3cccs3)nc3ccccc23)CC1`: the AC50 is 50.1 nM [falling, partial curve].

In the case of `O=C(O)c1ccc(-n2nc(C(F)(F)F)c3c2-c2ccoc2CC3)cc1`, the AC50 is 158 nM [falling, single point].

Consider `Cc1cc(C)nc(-n2nc(C)c3c(=O)[nH]c(C(F)(F)F)nc32)n1`, for which the AC50 is 794 nM [falling, partial curve, poor fit].

For the molecule `Cc1cc(NC(=O)COc2cccc3cccnc23)no1`, the AC50 is 200 nM [falling, full curve].

For the molecule `Cc1ncc(CSc2nnnn2-c2ccccc2)c(N)n1`, the concentration at half-maximal activity (AC50) is 5620 nM [falling, single point].

Take `Cc1c(Cl)cccc1NC(=O)Cn1cc(C(=O)C2CCCCC2)c2ccccc21`: the AC50 was 5.01 nM [falling, full curve, poor fit].

`Cc1ccc(NC(=O)c2ccc(OC(=O)COc3ccc(Cl)c(C)c3)cc2)cc1`: the half-maximal activity concentration (AC50) was 89.1 nM [rising, full curve, poor fit].

For `COc1ccc(OC)c(Nc2nc(-c3sc(NC(=O)CC(C)C)nc3C)cs2)c1`, the half-maximal activity concentration (AC50) was 3160 nM [falling, partial curve].

With `CC(=O)Nc1ccc(S(=O)(=O)N2CCN(C(=O)Cc3ccccc3)CC2)cc1`, the AC50 was 501 nM [falling, full curve].

As to `CCOCCCNC(=O)CN1C(=O)CSc2cc(S(=O)(=O)N3CCCCCC3)ccc21`, the concentration at half-maximal activity (AC50) is 5010 nM [rising, partial curve].

For `CCOC(=O)C1CCCN(S(=O)(=O)c2ccc3c(c2)CCN3C(=O)CC)C1` (stereo unspecified), the AC50 was 14100 nM [falling, partial curve, poor fit].

In the case of `NC(=O)CSc1nnc(-c2cccnc2)n1CCc1ccccc1`, the AC50 is 31600 nM [rising, single point].

On to `Cc1cccc(CSC2=NCCN2C(=O)C2CC2)c1`, for which the AC50 is 5.01 nM [falling, full curve, poor fit].

As for `COc1ccc(-c2nnc(SCC(=O)c3cccs3)o2)c(OC)c1`, the AC50 is 2000 nM [falling, full curve, poor fit].

On to `CCC(C)Nc1nc(SC(C(C)=O)C(C)=O)nc(N(C)C)n1` (stereo unspecified), for which the half-maximal activity concentration (AC50) is 12600 nM [rising, partial curve].

On to `COC(=O)c1cccc(S(=O)(=O)N2CCC(NC(=O)NC34CC5CC(CC(C5)C3)C4)CC2)c1`, for which the AC50 was 39.8 nM [rising, full curve, poor fit].

In the case of `CCCCCSc1nnc2c(n1)OC(CC)Nc1ccc(Br)cc1-2` (stereo unspecified), the AC50 is 11200 nM [falling, partial curve, poor fit].

On to `CCOC(=O)N1CCN(C(=O)Nc2sc3nc4n(c(=O)c3c2C)CCC(C)CC4)CC1` (stereo unspecified), for which the concentration at half-maximal activity (AC50) is 31.6 nM [falling, full curve, poor fit].

As for `O=C(c1ccc(Cl)cc1)c1ccc(CN2C(=O)c3ccccc3C2=O)o1`, the AC50 was 15.8 nM [rising, full curve, poor fit].

`Cc1ccc(OC(=O)c2cccc(C(=O)Oc3ccc(C)cc3)n2)cc1`: the AC50 is 200 nM [falling, full curve, poor fit].

Regarding `CCn1c(SCC(=O)Nc2sc3c(c2C#N)CCCC3)nnc1-c1ccncc1`, the AC50 was 1000 nM [falling, full curve].

Consider `C=CCSc1nnc(NC(=O)CSc2ccccn2)s1`, for which the AC50 was 4.47 nM [falling, full curve, poor fit].

In the case of `O=C(CSc1nc2c(cnn2-c2ccc(F)cc2)c(=O)[nH]1)N1CCCCCC1`, the AC50 is 224 nM [falling, full curve, poor fit].

Take `CSc1ncc(Cl)c(C(=O)Nc2ccc(S(=O)(=O)N3CCOCC3)cc2)n1`: the AC50 is 2000 nM [falling, single point].

Turning to `C/C(Cl)=C/Cn1c(SC(C)C)nc2c1c(=O)[nH]c(=O)n2C`, the AC50 was 50.1 nM [falling, full curve, poor fit].

As to `O=C(CCNS(=O)(=O)c1ccc(Br)cc1)NCc1ccc2c(c1)OCO2`, the AC50 was 2510 nM [rising, full curve].

For the molecule `CC(C)(C)c1csc(NC(=O)c2ccc(Cl)s2)n1`, the AC50 is 5010 nM [falling, full curve].
